The values below come from US8268772B2, “Depot preparations” (Symrise AG, priority 2001, dated 2012).

This data set can be described thus: Sensory aldehyde intensity during the hair coloring process. Particulars: scale 1.0=odorless to 9.0=very strong.

Each structure is given as a SMILES string. Where no unit stands, none is given here, and values compare only within one read-out.

For `CCCCCCCCCC(C)C=O` (stereo not drawn) [2-Methylundecanal], the Sensory intensity was found to be 4.6 (1 min); 5.4 (2 min); 5.8 (4 min); 6.0 (8 min); 6.0 (15 min); 5.4 (25 min).

With `CCCCCCC=O` [Aldehyde C7, heptanal], the Sensory intensity was found to be 4.0 (1 min); 5.0 (2 min); 6.0 (4 min); 6.2 (8 min); 6.2 (15 min); 4.4 (25 min).

`CC1=CC(C)C(C=O)CC1` (stereo not drawn) [Vertocitral]: the Sensory intensity is, setting by setting: (1 min) 4.6; (2 min) 5.4; (4 min) 5.8; (8 min) 6.0; (15 min) 6.0; (25 min) 5.4.
